In publication PMC5504286:
These are yes or no findings as the source states them, for the method shown. Binding seen in cells or lysates may run through a third protein. Some results given as binding are weak or reduced against the parent protein; the word gives no strength.

Amino acid sequences for entries named in this document (tags omitted). A change or cut given only in a name is not applied to a line headed by its entry. Chains listed by the source or under a name are the forms on record and can include a tag or linker. Residues count along the entry.
FLAG-tagged SRSF1 aa11-196 wild-type (Q07955, residues 11-196): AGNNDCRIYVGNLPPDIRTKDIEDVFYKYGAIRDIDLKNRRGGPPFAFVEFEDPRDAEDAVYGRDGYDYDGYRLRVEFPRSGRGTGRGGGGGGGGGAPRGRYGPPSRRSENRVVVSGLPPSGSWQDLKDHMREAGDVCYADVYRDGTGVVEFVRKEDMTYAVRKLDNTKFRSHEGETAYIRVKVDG
FLAG-tagged SRSF1 11-196 double R117,118A mutant (SRSF1-m2) (Q07955, form named): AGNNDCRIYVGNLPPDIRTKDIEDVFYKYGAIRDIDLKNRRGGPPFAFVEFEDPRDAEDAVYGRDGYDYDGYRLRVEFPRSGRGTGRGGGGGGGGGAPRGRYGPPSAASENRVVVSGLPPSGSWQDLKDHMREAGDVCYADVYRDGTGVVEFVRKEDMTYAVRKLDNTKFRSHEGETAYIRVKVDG

What was measured:
[1] = target: FLAG-tagged SRSF1 11-196 double R117,118A mutant (SRSF1-m2) (human) (UniProt Q07955); assay: co-IP; anti-FLAG M2 affinity resin on total extracts of transfected N2A cells (48 h post-transfection), 2 mg total protein in 1 ml lysis buffer (50 mM Hepes pH7.5, 150 mM NaCl, 10% glycerol, 0.5% Triton X-100, 1 mM EDTA, 1 mM DTT), 2 h at 4 °C, 5 washes, eluted with 3xFLAG peptide; blot with anti-NXF1
[2] = target: FLAG-tagged SRSF1 aa11-196 wild-type (human) (UniProt Q07955); assay: as above

binding [1]: binds
binding [2]: binds
B1: endogenous NXF1 (nuclear export factor 1) (protein, UniProt Q99JX7 1-618)
chain: MADEGKSYNEHDDRVSFPQRRKKGRGPFRWKCGEGNRRSGRGGSGVQSSRFEEDDGDVAMNDPQDGPRVRYNPYTNRPNRRGDGWHDRDRIHITVRRDRAPAERGGAGTSQDGTTKNWFKITIPYGRKYDKTWLLSMIQSKCSVPFNPIEFHYENTRAHFFVEDATTASALKGVNHKIQDRENRRISIIINASAPPYTVQNELKPEQIEQLKLIMSKRYDGNQQALDLKGLRSDPDLVAQNIDVVLNRRSCMAATLRIIEENIPELLSLNLSSNRLYKLDDMSSIVQKAPNLKTLNLSGNELKTERELDKIKGLKLEELWLDRNPMCDNFGDQSSYISAIRERFPKLLRLDGHELPPPISFDVEAPTMLPPCKGSYFGTENLKSLVLRFLQQYYVIYDSGDRQGLLYAYHDGACCSLSIPYNPQNPVRKNLAEYVKDSRNVKKLKEPTQRFRLLKHTRLNVVAFLNELPKTQHDVNAFVVDISAQTSTLLCFSVNGVFKEVDGKSRDSLRAFTRTFIAVPASNSGLCIVNDELFVRNASPEEIQRAFAMSAPTPSSSPVPTLSPEQQEMLQAFSTQSGMNLEWSQKCLQDNNWDYTRSAQAFTLLKAKGEIPEVAFMK
